Experimental data reported in paper PMC8877285.
Results are given in words; binding and its absence hold for the method and conditions named. In cells and extracts the contact can be indirect. Here binding means that the protein was enriched with, or labelled near, the bait; the list need not be complete. Where a sequence is shown, tags or fusion partners need not be part of it.

Amino acid sequences for entries named in this document (tags omitted). Residues count along the entry.
UniProt P26039: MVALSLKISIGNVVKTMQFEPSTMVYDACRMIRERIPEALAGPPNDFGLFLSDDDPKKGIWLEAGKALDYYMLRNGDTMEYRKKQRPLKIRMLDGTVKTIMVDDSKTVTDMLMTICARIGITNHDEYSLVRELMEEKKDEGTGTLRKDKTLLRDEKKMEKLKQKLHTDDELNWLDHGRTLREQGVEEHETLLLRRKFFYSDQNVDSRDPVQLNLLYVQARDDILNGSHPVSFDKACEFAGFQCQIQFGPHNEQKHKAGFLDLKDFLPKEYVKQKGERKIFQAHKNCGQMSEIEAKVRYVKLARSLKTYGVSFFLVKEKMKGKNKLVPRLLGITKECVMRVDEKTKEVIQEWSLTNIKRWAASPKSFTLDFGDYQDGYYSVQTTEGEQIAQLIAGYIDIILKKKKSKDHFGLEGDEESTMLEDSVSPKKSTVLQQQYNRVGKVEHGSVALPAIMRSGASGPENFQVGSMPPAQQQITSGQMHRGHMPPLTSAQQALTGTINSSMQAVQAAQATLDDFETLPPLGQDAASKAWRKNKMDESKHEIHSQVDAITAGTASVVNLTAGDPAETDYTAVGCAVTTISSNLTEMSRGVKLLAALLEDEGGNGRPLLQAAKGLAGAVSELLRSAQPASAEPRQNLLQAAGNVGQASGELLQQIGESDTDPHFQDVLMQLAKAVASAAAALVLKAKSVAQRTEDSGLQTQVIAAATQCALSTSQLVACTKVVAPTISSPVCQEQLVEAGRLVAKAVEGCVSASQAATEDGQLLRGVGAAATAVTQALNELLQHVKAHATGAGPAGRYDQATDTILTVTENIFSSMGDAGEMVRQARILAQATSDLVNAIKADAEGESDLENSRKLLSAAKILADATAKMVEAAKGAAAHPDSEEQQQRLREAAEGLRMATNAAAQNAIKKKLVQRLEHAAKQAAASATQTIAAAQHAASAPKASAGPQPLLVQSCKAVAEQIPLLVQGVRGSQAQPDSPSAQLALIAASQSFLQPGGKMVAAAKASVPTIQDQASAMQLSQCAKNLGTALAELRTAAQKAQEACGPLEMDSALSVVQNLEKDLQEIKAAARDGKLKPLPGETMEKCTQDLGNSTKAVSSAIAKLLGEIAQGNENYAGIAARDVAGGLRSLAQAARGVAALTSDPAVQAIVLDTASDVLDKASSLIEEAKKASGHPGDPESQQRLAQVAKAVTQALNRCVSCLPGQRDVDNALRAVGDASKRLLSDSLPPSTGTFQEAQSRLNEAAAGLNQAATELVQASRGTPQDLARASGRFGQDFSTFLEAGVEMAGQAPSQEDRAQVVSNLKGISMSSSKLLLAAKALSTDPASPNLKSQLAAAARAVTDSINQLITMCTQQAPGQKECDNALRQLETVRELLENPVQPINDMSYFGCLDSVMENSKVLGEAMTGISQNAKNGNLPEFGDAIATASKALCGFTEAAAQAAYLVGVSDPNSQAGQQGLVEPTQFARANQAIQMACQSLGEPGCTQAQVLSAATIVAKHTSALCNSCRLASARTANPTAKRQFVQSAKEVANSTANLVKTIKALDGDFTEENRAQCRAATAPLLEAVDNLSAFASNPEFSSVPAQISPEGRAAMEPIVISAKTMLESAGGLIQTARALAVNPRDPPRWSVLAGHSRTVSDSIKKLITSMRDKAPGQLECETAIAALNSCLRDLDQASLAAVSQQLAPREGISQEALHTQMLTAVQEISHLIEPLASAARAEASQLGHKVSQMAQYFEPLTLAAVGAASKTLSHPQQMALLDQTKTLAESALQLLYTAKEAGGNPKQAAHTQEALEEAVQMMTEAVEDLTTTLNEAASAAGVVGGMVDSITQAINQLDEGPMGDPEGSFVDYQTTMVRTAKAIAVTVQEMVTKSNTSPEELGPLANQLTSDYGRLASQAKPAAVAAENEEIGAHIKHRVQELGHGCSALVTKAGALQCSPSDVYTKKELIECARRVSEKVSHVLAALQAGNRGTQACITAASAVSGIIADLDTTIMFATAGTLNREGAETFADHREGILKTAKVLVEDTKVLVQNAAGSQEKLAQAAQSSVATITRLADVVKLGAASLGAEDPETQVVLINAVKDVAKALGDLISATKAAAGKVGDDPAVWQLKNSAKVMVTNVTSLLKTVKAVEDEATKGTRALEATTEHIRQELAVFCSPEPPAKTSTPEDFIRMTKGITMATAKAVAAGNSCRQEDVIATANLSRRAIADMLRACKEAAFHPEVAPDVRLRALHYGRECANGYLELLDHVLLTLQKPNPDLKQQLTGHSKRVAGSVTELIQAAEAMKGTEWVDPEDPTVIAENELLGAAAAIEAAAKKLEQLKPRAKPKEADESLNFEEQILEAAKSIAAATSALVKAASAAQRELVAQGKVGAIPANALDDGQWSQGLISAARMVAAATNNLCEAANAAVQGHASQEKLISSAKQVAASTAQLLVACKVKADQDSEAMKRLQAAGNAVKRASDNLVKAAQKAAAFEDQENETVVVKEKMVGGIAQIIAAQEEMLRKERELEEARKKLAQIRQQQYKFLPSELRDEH
UniProt P11679: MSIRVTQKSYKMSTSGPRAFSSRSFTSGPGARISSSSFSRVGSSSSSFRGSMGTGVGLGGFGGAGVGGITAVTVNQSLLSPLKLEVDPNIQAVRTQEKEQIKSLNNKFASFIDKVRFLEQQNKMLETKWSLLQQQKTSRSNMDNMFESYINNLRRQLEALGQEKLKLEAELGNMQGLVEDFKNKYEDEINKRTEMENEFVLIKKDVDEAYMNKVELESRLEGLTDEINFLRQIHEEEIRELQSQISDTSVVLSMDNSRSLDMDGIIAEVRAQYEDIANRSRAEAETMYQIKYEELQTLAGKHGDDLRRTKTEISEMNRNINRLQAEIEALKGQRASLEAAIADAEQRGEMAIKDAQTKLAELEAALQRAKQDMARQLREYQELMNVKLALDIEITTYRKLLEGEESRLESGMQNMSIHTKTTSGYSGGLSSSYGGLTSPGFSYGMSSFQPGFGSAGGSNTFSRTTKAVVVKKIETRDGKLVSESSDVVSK
UniProt Q91X83: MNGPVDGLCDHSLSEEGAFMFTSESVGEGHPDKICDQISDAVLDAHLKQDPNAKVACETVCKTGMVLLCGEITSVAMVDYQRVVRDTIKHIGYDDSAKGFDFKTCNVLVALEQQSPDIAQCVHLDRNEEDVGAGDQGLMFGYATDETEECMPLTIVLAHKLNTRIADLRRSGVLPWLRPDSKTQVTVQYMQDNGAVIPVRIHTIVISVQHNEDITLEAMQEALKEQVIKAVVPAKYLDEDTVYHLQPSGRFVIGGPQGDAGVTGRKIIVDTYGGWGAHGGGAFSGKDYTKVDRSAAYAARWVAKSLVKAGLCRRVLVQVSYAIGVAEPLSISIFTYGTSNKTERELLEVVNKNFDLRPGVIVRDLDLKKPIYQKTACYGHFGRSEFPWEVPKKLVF
UniProt O08573: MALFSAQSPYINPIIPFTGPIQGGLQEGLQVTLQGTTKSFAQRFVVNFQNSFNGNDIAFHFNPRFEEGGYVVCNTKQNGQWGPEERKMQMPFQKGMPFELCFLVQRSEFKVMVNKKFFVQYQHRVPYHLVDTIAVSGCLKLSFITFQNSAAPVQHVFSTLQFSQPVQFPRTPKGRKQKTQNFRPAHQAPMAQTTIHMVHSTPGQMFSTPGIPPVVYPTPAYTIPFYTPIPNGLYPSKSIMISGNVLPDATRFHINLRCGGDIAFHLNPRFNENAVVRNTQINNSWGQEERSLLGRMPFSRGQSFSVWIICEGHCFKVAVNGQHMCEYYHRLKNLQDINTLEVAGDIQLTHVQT
UniProt P53657: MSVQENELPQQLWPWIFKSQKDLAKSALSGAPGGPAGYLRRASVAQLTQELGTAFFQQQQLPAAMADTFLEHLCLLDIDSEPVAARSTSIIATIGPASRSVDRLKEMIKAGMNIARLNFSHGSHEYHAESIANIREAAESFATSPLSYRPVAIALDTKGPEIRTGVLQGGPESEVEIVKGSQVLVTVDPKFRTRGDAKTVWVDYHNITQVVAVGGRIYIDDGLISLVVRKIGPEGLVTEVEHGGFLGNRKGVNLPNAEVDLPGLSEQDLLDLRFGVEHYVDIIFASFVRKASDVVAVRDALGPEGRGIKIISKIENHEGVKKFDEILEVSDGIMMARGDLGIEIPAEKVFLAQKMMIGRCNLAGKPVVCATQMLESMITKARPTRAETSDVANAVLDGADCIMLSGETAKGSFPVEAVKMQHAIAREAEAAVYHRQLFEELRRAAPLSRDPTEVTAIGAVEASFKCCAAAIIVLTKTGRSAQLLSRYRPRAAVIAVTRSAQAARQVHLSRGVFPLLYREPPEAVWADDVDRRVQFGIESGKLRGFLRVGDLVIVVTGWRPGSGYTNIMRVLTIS
UniProt P15105: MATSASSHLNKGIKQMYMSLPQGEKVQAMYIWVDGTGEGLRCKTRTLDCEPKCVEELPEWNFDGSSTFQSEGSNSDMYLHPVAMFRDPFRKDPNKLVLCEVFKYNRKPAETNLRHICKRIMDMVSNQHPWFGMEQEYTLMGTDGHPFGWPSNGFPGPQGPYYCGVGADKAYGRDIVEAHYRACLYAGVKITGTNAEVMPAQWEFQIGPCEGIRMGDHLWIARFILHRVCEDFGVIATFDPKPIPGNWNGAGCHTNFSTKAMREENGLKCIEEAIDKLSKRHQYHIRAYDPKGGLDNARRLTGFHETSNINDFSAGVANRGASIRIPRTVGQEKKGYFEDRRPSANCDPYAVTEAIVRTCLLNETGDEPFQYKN
UniProt P14106, residues 26-253: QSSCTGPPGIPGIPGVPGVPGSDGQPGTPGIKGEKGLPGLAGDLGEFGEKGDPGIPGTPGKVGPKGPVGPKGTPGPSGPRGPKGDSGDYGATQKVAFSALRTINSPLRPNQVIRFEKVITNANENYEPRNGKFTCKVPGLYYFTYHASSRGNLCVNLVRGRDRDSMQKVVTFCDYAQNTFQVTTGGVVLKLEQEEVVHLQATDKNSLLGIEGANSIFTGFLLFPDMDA
UniProt Q9CQ75: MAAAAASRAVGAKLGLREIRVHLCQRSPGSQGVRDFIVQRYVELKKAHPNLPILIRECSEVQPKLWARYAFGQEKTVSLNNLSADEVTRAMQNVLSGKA
UniProt Q9DCX2: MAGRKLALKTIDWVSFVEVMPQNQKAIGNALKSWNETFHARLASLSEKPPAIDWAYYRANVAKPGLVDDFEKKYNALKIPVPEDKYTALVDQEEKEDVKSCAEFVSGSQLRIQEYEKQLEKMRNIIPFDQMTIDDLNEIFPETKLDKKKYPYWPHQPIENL
UniProt Q9WUM5, residues 35-346: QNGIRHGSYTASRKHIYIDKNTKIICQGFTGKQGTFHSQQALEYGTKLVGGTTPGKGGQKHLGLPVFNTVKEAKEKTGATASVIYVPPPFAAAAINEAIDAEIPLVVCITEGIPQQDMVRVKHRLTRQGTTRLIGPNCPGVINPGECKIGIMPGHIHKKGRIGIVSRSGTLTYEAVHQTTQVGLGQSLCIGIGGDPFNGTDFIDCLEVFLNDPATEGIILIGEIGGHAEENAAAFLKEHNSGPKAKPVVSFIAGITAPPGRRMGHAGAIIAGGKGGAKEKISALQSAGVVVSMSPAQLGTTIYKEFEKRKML
UniProt O35129: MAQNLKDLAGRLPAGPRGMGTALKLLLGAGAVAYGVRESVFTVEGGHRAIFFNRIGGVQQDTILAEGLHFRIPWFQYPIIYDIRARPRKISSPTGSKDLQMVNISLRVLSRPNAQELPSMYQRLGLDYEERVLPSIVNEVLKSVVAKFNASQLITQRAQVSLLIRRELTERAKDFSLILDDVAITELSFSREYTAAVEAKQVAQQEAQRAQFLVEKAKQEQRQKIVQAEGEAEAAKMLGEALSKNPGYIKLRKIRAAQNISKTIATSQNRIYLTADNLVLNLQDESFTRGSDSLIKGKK
UniProt P02104: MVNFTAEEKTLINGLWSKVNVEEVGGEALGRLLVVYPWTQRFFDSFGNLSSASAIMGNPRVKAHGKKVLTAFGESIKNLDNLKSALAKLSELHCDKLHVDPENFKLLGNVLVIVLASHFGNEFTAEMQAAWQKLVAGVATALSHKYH
UniProt P68372: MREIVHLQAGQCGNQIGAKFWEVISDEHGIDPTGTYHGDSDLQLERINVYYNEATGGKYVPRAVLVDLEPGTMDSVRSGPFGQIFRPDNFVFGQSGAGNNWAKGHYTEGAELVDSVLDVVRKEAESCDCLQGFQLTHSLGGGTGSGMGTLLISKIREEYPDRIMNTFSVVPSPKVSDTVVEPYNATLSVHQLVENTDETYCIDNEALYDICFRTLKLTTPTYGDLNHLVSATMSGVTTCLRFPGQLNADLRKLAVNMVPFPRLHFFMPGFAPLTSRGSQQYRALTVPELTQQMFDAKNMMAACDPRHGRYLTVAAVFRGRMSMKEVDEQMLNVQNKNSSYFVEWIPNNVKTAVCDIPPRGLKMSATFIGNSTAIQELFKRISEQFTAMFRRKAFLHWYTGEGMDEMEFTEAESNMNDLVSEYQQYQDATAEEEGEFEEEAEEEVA

B1: carbamoylphosphate synthetase (CPS1) (protein, UniProt Q8C196 39-1500)
chain: LSVKAKTAHIVLEDGTKMKGYSFGHPSSVAGEVVFNTGLGGYPEALTDPAYKGQILTMANPIIGNGGAPDTTARDELGLNKYMESDGIKVAGLLVLNYSNDYNHWLATKSLGQWLQEEKVPAIYGVDTRMLTKIIRDKGTMLGKIEFEGQSVDFVDPNKQNLIAEVSTKDVKVFGKGNPTKVVAVDCGIKNNVIRLLVKRGAEVHLVPWNHDFTQMEYDGLLIAGGPGNPALAQPLIQNVKKILESDRKEPLFGISTGNIITGLAAGAKSYKMSMANRGQNQPVLNITNRQAFITAQNHGYALDNTLPAGWKPLFVNVNDQTNEGIMHESKPFFAVQFHPEVSPGPTDTEYLFDSFFSLIKKGKGTTITSVLPKPALVASRVEVSKVLILGSGGLSIGQAGEFDYSGSQAVKAMKEENVKTVLMNPNIASVQTNEVGLKQADAVYFLPITPQFVTEVIKAERPDGLILGMGGQTALNCGVELFKRGVLKEYGVKVLGTSVESIMATEDRQLFSDKLNEINEKIAPSFAVESMEDALKAADTIGYPVMIRSAYALGGLGSGICPNKETLIDLGTKAFAMTNQILVERSVTGWKEIEYEVVRDADDNCVTVCNMENVDAMGVHTGDSVVVAPAQTLSNAEFQMLRRTSVNVVRHLGIVGECNIQFALHPTSMEYCIIEVNARLSRSSALASKATGYPLAFIAAKIALGIPLPEIKNVVSGKTSACFEPSLDYMVTKIPRWDLDRFHGTSSRIGSSMKSVGEVMAIGRTFEESFQKALRMCHPSVDGFTPRLPMNKEWPANLDLKKELSEPSSTRIYAIAKALENNMSLDEIVRLTSIDKWFLYKMRDILNMDKTLKGLNSDSVTEETLRKAKEIGFSDKQISKCLGLTEAQTRELRLKKNIHPWVKQIDTLAAEYPSVTNYLYVTYNGQEHDIKFDEHGIMVLGCGPYHIGSSVEFDWCAVSSIRTLRQLGKKTVVVNCNPETVSTDFDECDKLYFEELSLERILDIYHQEACNGCIISVGGQIPNNLAVPLYKNGVKIMGTSPLQIDRAEDRSIFSAVLDELKVAQAPWKAVNTLNEALEFANSVGYPCLLRPSYVLSGSAMNVVFSEDEMKRFLEEATRVSQEHPVVLTKFVEGAREVEMDAVGKEGRVISHAISEHVEDAGVHSGDATLMLPTQTISQGAIEKVKDATRKIAKAFAISGPFNVQFLVKGNDVLVIECNLRASRSFPFVSKTLGVDFIDVATKVMIGESIDEKRLPTLEQPIIPSDYVAIKAPMFSWPRLRDADPILRCEMASTGEVACFGEGIHTAFLKAMLSTGFKIPQKGILIGIQQSFRPRFLGVAEQLHNEGFKLFATEATSDWLNANNVPATPVAWPSQEGQNPSLSSIRKLIRDGSIDLVINLPNNNTKFVHDNYVIRRTAVDSGIALLTNFQVTKLFAEAVQKSRTVDSKSLFHYRQYSAGKAA
B2: GSTM1 (protein, UniProt P10649 1-218)
chain: MPMILGYWNVRGLTHPIRMLLEYTDSSYDEKRYTMGDAPDFDRSQWLNEKFKLGLDFPNLPYLIDGSHKITQSNAILRYLARKHHLDGETEEERIRADIVENQVMDTRMQLIMLCYNPDFEKQKPEFLKTIPEKMKLYSEFLGKRPWFAGDKVTYVDFLAYDILDQYRMFEPKCLDAFPNLRDFLARFEGLKKISAYMKSSRYIATPIFSKMAHWSNK
B3: GYS2 (protein, UniProt Q8VCB3 1-704)
chain: MLRGRSLSVTSLGGLPVWEAERLPVEDLLLFEVSWEVTNKVGGICTVIQTKAKTTADEWGENYFLIGPYFEHNMKTQVEQCEPTNDAVRKAVDAMNKHGCQVHFGRWLIEGSPYVVLFDISSSAWNLDRWKGDFWEACGVGIPHHDREANDMLIFGSLTAWFLKEVTDHADGKHVIAQFHEWQAGTGLILSRARKLPIATVFTTHATLLGRYLCAANIDFYNQLDKFDIDKEAGERQIYHRYCMERASVHCAHVFTTVSEITAIEAEHMLKRKPDVVTPNGLNVKKFSAVHEFQNLHAMYKARIQDFVRGHFYGHLDFDLEKTLFLFIAGRYEFSNKGADIFLESLSRLNFLLRMHKSNVTVVVFFIMPAKTNNFNVETLKGQAVRKQLWDTVHCLKEKFGKKLYDGLLRGEIPDMNSILDRDDLTIMKRAIFSTQRQSLPPVTTHNMIDDSTDPILSTIRRIGLFNNRADRVKVILHPEFLSSTSPLLPMDYEEFVRGCHLGVFPSYYEPWGYTPAECTVMGIPSVTTNLSGFGCFVQEHVADPTAYGIYIVDRRFRSPDDSCNQLTQFLYGFCKQSRRQRIIQRNRTERLSDLLDWRYLGRYYQHARHLTLSRAFPDKFHLEPTSPPTTDGFKYPRPSSVPPSPSGSQASSPQCSDAEDEEDEDERYDEEEEAERDRLNIKSPFSLNHFPKGKKKLHGEYKN
B4: keratin18 (protein, UniProt P05784 1-423)
chain: MSFTTRSTTFSTNYRSLGSVRTPSQRVRPASSAASVYAGAGGSGSRISVSRSVWGGSVGSAGLAGMGGIQTEKETMQDLNDRLASYLDKVKSLETENRRLESKIREHLEKKGPQGVRDWGHYFKIIEDLRAQIFANSVDNARIVLQIDNARLAADDFRVKYETELAMRQSVESDIHGLRKVVDDTNITRLQLETEIEALKEELLFMKKNHEEEVQGLEAQIASSGLTVEVDAPKSQDLSKIMADIRAQYEALAQKNREELDKYWSQQIEESTTVVTTKSAEIRDAETTLTELRRTLQTLEIDLDSMKNQNINLENSLGDVEARYKAQMEQLNGVLLHLESELAQTRAEGQRQAQEYEALLNIKVKLEAEIATYRRLLEDGEDFSLNDALDSSNSMQTVQKTTTRKIVDGRVVSETNDTRVLRH
B5: MRI1 (protein, UniProt Q9CQT1 1-369)
chain: MTLEAIRYSPGSLQILDQLQLPEHCHYEALSSVQQASEAIRAMKVRGAPAIALVGCLSLAVELRAGAGGPGLAALVAFVRDQLRLLVAARPTAVNMARAARDLGQVAAQEAEREGATEETVRERVIRFAEDMLEKDLKDNRSIGDLGARHLLEQTNPRGGKVTVLTHCNTGALATAGYGTALGVIRSLHEMGRLEHTFCTETRPYNQGARLTAFELVYEQIPATLITDSMAAAAMAHRGVSAVVVGADRVVANGDTANKIGTYQLAIVAKHHGVPFYVAAPSSSCDLHLETGKEIVIEERPSQELTDLNGVRIAAQGIRVWNPAFDVTPHELITGGIITELGVFAPEELRGALSASVFSEGQTLDSPWV
B6: serine hydroxymethyltransferase 1 (Shmt1) (protein, UniProt P50431 1-478)
chain: MADRDATLWASHEKMLSQPLKDSDAEVYSIIKKESNRQRVGLELIASENFASRAVLEALGSCLNNKYSEGYPGQRYYGGTEFIDELEMLCQKRALQAYHLDPQCWGVNVQPYSGSPANFAVYTALVEPHGRIMGLDLPDGGHLTHGFMTDKKKISATSIFFESMPYKVYPETGYINYDQLEENASLFHPKLIIAGTSCYSRNLDYARLRKIADDNGAYLMADMAHISGLVAAGVVPSPFEHCHVVTTTTHKTLRGCRAGMIFYRKGVRSVDPKTGKETYYELESLINSAVFPGLQGGPHNHAIAGVAVALKQAMTTEFKIYQLQVLANCRALSDALTELGYKIVTGGSDNHLILMDLRSKGTDGGRAEKVLEACSIACNKNTCPGDKSALRPSGLRLGTPALTSRGLLEEDFQKVAHFIHRGIELTLQIQSHMATKATLKEFKEKLAGDEKIQSAVATLREEVENFASNFSLPGLPDF
B7: mitochondrial carrier SLC25A3 (protein, UniProt Q8VEM8 46-357)
chain: AVEEYSCEFGSMKYYALCGFGGVLSCGLTHTAVVPLDLVKCRMQVDPQKYKGIFNGFSITLKEDGVRGLAKGWAPTLIGYSMQGLCKFGFYEVFKALYSNILGEENTYLWRTSLYLASSASAEFFADIALAPMEAAKVRIQTQPGYANTLREAVPKMYKEEGLNAFYKGVAPLWMRQIPYTMMKFACFERTVEALYKFVVPKPRSECTKAEQLVVTFVAGYIAGVFCAIVSHPADSVVSVLNKEKGSTASQVLQRLGFRGVWKGLFARIIMIGTLTALQWFIYDSVKVYFRLPRPPPPEMPESLKKKLGLTE
B8: argininosuccinate synthetase (ASS) (protein, UniProt P16460 1-412)
chain: MSSKGSVVLAYSGGLDTSCILVWLKEQGYDVIAYLANIGQKEDFEEARKKALKLGAKKVFIEDVSKEFVEEFIWPAVQSSALYEDRYLLGTSLARPCIARRQVEIAQREGAKYVSHGATGKGNDQVRFELTCYSLAPQIKVIAPWRMPEFYNRFKGRNDLMEYAKQHGIPIPVTPKSPWSMDENLMHISYEAGILENPKNQAPPGLYTKTQDPAKAPNSPDVLEIEFKKGVPVKVTNIKDGTTRTTSLELFMYLNEVAGKHGVGRIDIVENRFIGMKSRGIYETPAGTILYHAHLDIEAFTMDREVRKIKQGLGLKFAELVYTGFWHSPECEFVRHCIQKSQERVEGKVQVSVFKGQVYILGRESPLSLYNEELVSMNVQGDYEPIDATGFININSLRLKEYHRLQSKVTAK

Biological target: T1, flavin-containing monooxygenase 3 (FMO3) (mouse (endogenous in mouse liver)) (UniProt P97501)
T1 sequence: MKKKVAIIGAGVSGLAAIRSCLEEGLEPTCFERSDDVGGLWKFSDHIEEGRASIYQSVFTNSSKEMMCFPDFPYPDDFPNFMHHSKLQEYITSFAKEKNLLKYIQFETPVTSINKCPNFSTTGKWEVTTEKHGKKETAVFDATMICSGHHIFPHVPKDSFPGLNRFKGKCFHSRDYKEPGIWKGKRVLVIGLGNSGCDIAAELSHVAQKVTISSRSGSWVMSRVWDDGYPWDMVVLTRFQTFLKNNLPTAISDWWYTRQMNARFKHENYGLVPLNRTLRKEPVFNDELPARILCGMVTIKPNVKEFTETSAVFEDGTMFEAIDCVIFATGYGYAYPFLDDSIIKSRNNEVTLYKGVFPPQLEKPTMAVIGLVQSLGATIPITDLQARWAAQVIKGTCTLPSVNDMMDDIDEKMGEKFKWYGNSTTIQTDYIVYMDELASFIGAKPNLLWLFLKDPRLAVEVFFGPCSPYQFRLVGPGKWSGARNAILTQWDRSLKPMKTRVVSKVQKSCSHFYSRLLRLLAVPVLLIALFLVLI
Test: affinity purification with mass spectrometry; mouse liver extracts (vehicle or PCB-126-treated mice) in TBS (25 mM Tris pH 7.4, 150 mM NaCl, 1% NP-40, 5% glycerol, protease inhibitors), immunoprecipitated overnight at 4 °C with anti-FMO3 (Abnova) on protein A/G agarose; normal IgG IP as control; LC-MS/MS of the tryptic digest

Row | Molecule | binding
1 | TLN1 (from UniProt P26039 1-2541) | binds
2 | KRT8 (from UniProt P11679 1-490) | binds
3 | MAT1A (from UniProt Q91X83 1-396) | binds
4 | LGALS9 (from UniProt O08573 1-353) | binds
5 | PKLR (from UniProt P53657 1-574) | binds
6 | GLUL (from UniProt P15105 1-373) | binds
7 | C1QB (from UniProt P14106 26-253) | binds
8 | VWA8 (from UniProt Q8CC88 46-1905) | binds
9 | NDUFA2 (from UniProt Q9CQ75 1-99) | binds
10 | ATP5PD (from UniProt Q9DCX2 1-161) | binds
11 | complement C3 (from UniProt P01027 25-1663) | binds
12 | SUCLG1 (from UniProt Q9WUM5 35-346) | binds
13 | C1RA (mouse (endogenous in mouse liver)) | binds
14 | PHB2 (from UniProt O35129 1-299) | binds
15 | TDO2 (from UniProt P48776 1-406) | binds
16 | HBB-Y (from UniProt P02104 1-147) | binds
17 | TUBB4B (from UniProt P68372 1-445) | binds
18 | B1 | binds
19 | B2 | binds
20 | B3 | binds
21 | B4 | binds
22 | B5 | binds
23 | B6 | binds
24 | B7 | binds
25 | B8 | binds
